In PubChem BioAssay AID504467 (National Center for Advancing Translational Sciences (NCATS), 2011):
The campaign covered roughly 330,000 compounds. About 7,700 (2.3%) were called active. The inconclusive results got no clear call from the source; some entries with a clear call stand among them for comparison. Calls come from the whole dose curve; as a rule, active = well fitted inhibition curve with a large enough effect; inconclusive = small, poorly fitted or top-dose-only effect, or effect the other way; inactive = flat fitted curve, though single readings scatter. Potencies beside an inconclusive call are fits to weak or partial responses and may not hold up.

assay: qHTS screen for small molecules that inhibit ELG1-dependent DNA repair in human embryonic kidney (HEK293T) cells expressing luciferase-tagged ELG1; conditions: HEK293T ELG1-luciferase reporter, luminescence, 16 h, DNA damage induced by 5-fluorouridine; activity change, negative = inhibition: at 46.1 µM (top of the series); note: nearly all actives have a fitted effect of over 55% in size
Outline: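 Reporter activity after DNA damage by 5-fluorouridine is monitored. Compound-treated cells incubate 16 hr at 37 °C, then ONE-Glo is added for 30 min before luminescence reading.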
% is set by controls: 0 for no effect and ±100 for the full control effect; potency is the fitted concentration of half-maximal effect.

SMILES	Potency	activity change, negative = inhibition
CS(=O)(=O)Nc1cccc(C2=NN(C(=O)c3ccco3)C(c3cccs3)C2)c1 (stereo not given)	active: 6.51 µM	–
COc1ccc(-c2ccc(Nc3ccc(S(=O)(=O)N4CCCC4)cc3)nn2)cc1OC	active: 23.1 µM	–
COc1cc(OC)cc(-c2n[nH]c(=S)n2-c2ccc3c(c2)OCO3)c1	–	inactive: 8.97%
O=C(CN1C(=O)c2ccc([N+](=O)[O-])cc2C1=O)NCC1CCCO1 (stereo not given)	–	inactive: 5.18%
COC(=O)c1cn(C(=O)c2ccccc2Cl)c2ccccc12	–	inactive: -9.23%
Cc1cc(OC(=O)c2cccc(F)c2)c([N+](=O)[O-])c(=O)[nH]1	–	inactive: 7.83%
O=C(Nc1ccccc1)Nc1nnc(-c2ccccc2)s1	inconclusive: 2.06 µM [activator, full curve, poor fit]	–
CN(C)S(=O)(=O)c1ccc(NC(=O)c2cc(F)c(F)cc2Cl)cc1	–	inactive: 16.4%
NC(=O)c1cnn(-c2cccc(Cl)c2)c1N	–	inactive: 14.1%
O=Cc1c(OCc2ccccc2)ccc2ccccc12	inconclusive: 18.3 µM [activator, partial curve]	–
COc1cccc(N(CC(=O)NC2CCCC2)C(=O)Cn2nnc(-c3ccc(C)o3)n2)c1	–	inactive: 9.25%
Clc1cc(Cl)cc(Nc2ncn[nH]2)c1	–	inactive: -4.72%
CCN(CC(=O)Nc1ccccc1OC)CC(=O)Nc1c(Cl)ccc(C)c1Cl	inconclusive: 18.3 µM [inhibitor, single point]	–
O=C(N/N=C/c1c(O)n(-c2ccccc2Cl)c(=O)c2ccccc12)c1cccnc1	–	inactive: -15.4%
COc1cc(/C=C/C(=O)OCC(=O)Nc2ccc3c(c2)OCO3)ccc1O	inconclusive: 6.51 µM [inhibitor, single point]	–
Cc1oc2cc(O)ccc2c(=O)c1Oc1ccccc1	inconclusive: 29.1 µM [activator, partial curve, poor fit]	–
Cc1ccc2nsnc2c1S(=O)(=O)NCc1ccncc1	inconclusive: 14.6 µM [inhibitor, partial curve]	–
O=C(CCNC(=O)C1CCN(S(=O)(=O)c2ccc(F)cc2)CC1)NCc1ccc(Cl)cc1	inconclusive: 4.61 µM [inhibitor, single point]	–
O=C1c2cccc(OCc3ccc(F)cc3)c2CCN1Cc1ccc(F)cc1	active: 4.11 µM	–
COc1ccc(N2CCN(C(=O)Cc3ccc(OC)c(OC)c3)CC2)cc1	inconclusive: 29.1 µM [inhibitor, single point]	–
Cc1ccc2nc(-c3ccncc3)c(NC3CCCCC3)n2c1	inconclusive: 20.6 µM [activator, single point]	–
CCN(CC)C(=O)c1cc(-c2ccc3c(c2)OCO3)on1	inconclusive: 18.3 µM [activator, partial curve]	–
CC(=O)c1c(C)[nH]c(C(=O)CSc2nnc(-c3ccccc3)o2)c1C	inconclusive: 18.4 µM [inhibitor, partial curve]	–
COc1ccccc1CNC(=O)COC(=O)c1n[nH]c2ccccc12	inconclusive: 29.1 µM [inhibitor, partial curve, poor fit]	–

SMILES	Potency	activity change, negative = inhibition
O=C(CCC1CCN(Cc2ccc(Cl)cc2)CC1)NC1CC1	–	inactive: -12.5%
CCC1(CC)NC(=O)N(CC(=O)N2N=C(c3ccc(Cl)cc3)CC2c2ccco2)C1=O (stereo not given)	inconclusive: 23.1 µM [inhibitor, single point]	–
Oc1nc(Nc2ccc(F)cc2)sc1/C=C1\C=Nc2ccccc21	inconclusive: 29.1 µM [inhibitor, single point]	–
Cc1cc(=O)n2[nH]c(SCc3ccccc3Cl)nc2n1	–	inactive: 1.39%
CN(Cc1nccn1C)C(=O)c1ccc2nc(Cc3ccccc3F)oc2c1	inconclusive: 20.6 µM [activator, partial curve]	–
O=C(CCl)Nc1cccc(S(=O)(=O)N2CCCCCC2)c1	inconclusive: 29.1 µM [inhibitor, single point]	–
Cc1ccccc1Cn1c(CN2CCN(C(=O)c3ccco3)CC2)nc2c1c(=O)n(C)c(=O)n2C	inconclusive: 10.3 µM [inhibitor, partial curve, poor fit]	–
COC(=O)CNc1c(-c2ccccc2)nc2ccc(Br)cn12	inconclusive: 29.1 µM [activator, single point]	–
CC(C)C[C@H](NC(=O)N1CCn2c1nc1ccccc12)C(=O)N[C@@H](C(=O)O)c1ccccc1	–	inconclusive: 41.7% [activator]
c1ccc(SCc2nc(-c3ccccn3)no2)cc1	inconclusive: 12.6 µM [activator, partial curve]	–
COc1ccc(C=O)cc1C1=CC(=O)C[C@H](c2ccc(Cl)cc2)C1	inconclusive: 25.9 µM [inhibitor, single point]	–
O=C(O)c1ccc(-n2nncc2-c2ccccc2)cc1	–	inactive: 1.86%
O=C(Nc1ccn(Cc2ccc(Cl)cc2)n1)c1ccccc1	inconclusive: 3.26 µM [activator, single point]	–
Cc1cc(C)nc(/N=C(\N)Nc2ccc(-c3ccccc3)cc2)n1	–	inactive: -16.8%
O=C(COC(=O)c1c(Cl)cccc1Cl)Nc1cc(Cl)ccc1Oc1ccccc1	inconclusive: 23.1 µM [inhibitor, partial curve]	–
CCCc1cc(C(N)=O)c(NC(=O)C2CCCO2)s1 (stereo not given)	inconclusive: 0.231 µM [inhibitor, full curve]	–
O=C(c1ccc(N2C(=O)C3C4c5ccccc5C(c5ccccc54)C3C2=O)cc1)N1CCOCC1 (stereo not given)	inconclusive: 20.6 µM [inhibitor, partial curve]	–
O=C(NCCCl)c1ccc(OCc2ccccc2)cc1Cl	inconclusive: 29.1 µM [activator, partial curve, poor fit]	–
Clc1cccc2sc(N3CCCC3)nc12	inconclusive: 35.5 µM [activator, single point]	–
CC(CCCCCCCCC(=O)O)N(CCO)C(=O)OC(C)(C)C (stereo not given)	–	inactive: 16%
COc1c(Cl)cccc1-c1cn2ccc(C)cc2n1	inconclusive: 1.64 µM [activator, full curve]	–
O=C(c1cc2ccccc2oc1=O)N1CCN(c2ccc(N3CCOCC3)nn2)CC1	inconclusive: 10.3 µM [activator, single point]	–
Cc1cc(Cl)ccc1Nc1ncccc1C(N)=O	inconclusive: 16.4 µM [activator, partial curve, poor fit]	–
CCOC(=O)c1c(C)n(-c2ccc(C)cc2)c2c(C(C(C)=O)C(=O)O)c(Br)c(O)c(O)c12 (stereo not given)	–	inactive: -16%

5 records drawn at random from the list so far:
SMILES	Potency	activity change, negative = inhibition
COc1c(Cl)cccc1-c1cn2ccc(C)cc2n1	inconclusive: 1.64 µM [activator, full curve]	–
Cc1cc(=O)n2[nH]c(SCc3ccccc3Cl)nc2n1	–	inactive: 1.39%
Oc1nc(Nc2ccc(F)cc2)sc1/C=C1\C=Nc2ccccc21	inconclusive: 29.1 µM [inhibitor, single point]	–
CCCc1cc(C(N)=O)c(NC(=O)C2CCCO2)s1 (stereo not given)	inconclusive: 0.231 µM [inhibitor, full curve]	–
CC(C)C[C@H](NC(=O)N1CCn2c1nc1ccccc12)C(=O)N[C@@H](C(=O)O)c1ccccc1	–	inconclusive: 41.7% [activator]

Next part:

SMILES	Potency	activity change, negative = inhibition
CC1=CC2=NC(=O)/C(=C\c3cccn3CCOc3ccccc3C)C(=N)N2O1	inconclusive: 29.1 µM [inhibitor, single point]	–
Cc1cc(C)n2c(SCc3ccc(Br)cc3)nnc2n1	inconclusive: 9.2 µM [activator, partial curve, poor fit]	–
CCc1cc2c(=O)c(-c3nc(C)cs3)coc2cc1OC(C)C(=O)NCCO (stereo not given)	inconclusive: 23.1 µM [inhibitor, single point]	–
C[C@@H](NC(=O)Cn1ccc(NC(=O)OCc2ccccc2)nc1=O)c1cccc2ccccc12	–	inactive: -5.14%
CCOC(=O)CN(C(=O)CSc1nnc2c(n1)[nH]c1c(C)cc(C)cc12)c1ccccc1	active: 16.4 µM	–
O=C(c1ccoc1)N1CCC2(CC1)Oc1ccc(F)cc1C(=O)C21CC(c2ccccc2)=NO1 (stereo not given)	–	inactive: -0.139%
COc1ccc(CCNC(=O)COC(=O)c2cc(S(=O)(=O)N3CCOCC3)ccc2C)cc1OC	inconclusive: 29.1 µM [inhibitor, single point]	–
Cn1c(=O)c2c(nc(Br)n2CCc2ccccc2)n(C)c1=O	inconclusive: 23.1 µM [inhibitor, partial curve, poor fit]	–
CC(C)(C)c1cc(N2CCOCC2)n2ncc(-c3ccc(Cl)cc3)c2n1	inconclusive: 11.6 µM [activator, partial curve, poor fit]	–
CNC(=S)N1CCN(c2ccccn2)CC1	inconclusive: 14.6 µM [activator, partial curve, poor fit]	–
N#CCCN/N=C(/Cc1nc2ccccc2[nH]1)c1ccc(Cl)cc1	inconclusive: 7.31 µM [activator, partial curve]	–
CC(C(=O)NC1CCS(=O)(=O)C1)N1C(=O)/C(=C/c2ccc(Cl)cc2)SC1=S (stereo not given)	inconclusive: 18.3 µM [activator, partial curve, poor fit]	–
Cc1c(OCC(=O)NCC2CCC(C(=O)O)CC2)ccc2c(-c3ccccc3)cc(=O)oc12 (stereo not given)	–	inactive: 6.29%
Cc1ccc(SCc2c(C(=O)N/N=C/c3ccccc3)nnn2-c2nonc2N)cc1	inconclusive: 23.1 µM [inhibitor, single point]	–
Cc1cccc(NC(=O)CN2CCN(CC(=O)NCc3ccc(Cl)cc3Cl)CC2)c1C	–	inactive: -0.21%
COCC(=O)n1nc(-c2ccccc2)nc1NCc1cccs1	inconclusive: 16.4 µM [activator, partial curve]	–
Clc1cccc(/C=N/Nc2ncnc3ccccc23)c1	inconclusive: 2.91 µM [activator, full curve]	–
O=C(CS(=O)(=O)c1ccccc1)N1CCCCCC1	inconclusive: 16.4 µM [activator, single point]	–
COc1ccc(-n2nc(C(=O)NCC(=O)N3CCCC3)c3ccccc3c2=O)c(OC)c1	–	inactive: 23%
Cn1c(=O)oc2cc(S(=O)(=O)N3CCCC(C(=O)N4CCn5c4nc4ccccc45)C3)ccc21 (stereo not given)	inconclusive: 20.6 µM [inhibitor, partial curve, poor fit]	–
COc1ccc2sc(-c3ccc(S(C)(=O)=O)cc3)c(C(=O)NCCCN3CCCC3=O)c2c1	active: 16.4 µM	–
COc1ccc(Nc2cc(C)nc3ncnn23)cc1Cl	–	inactive: 18.1%
